# Data published in PubChem BioAssay AID1347426 (Functional Genomics Laboratory (NCATS/FGL), 2020).
# Among all 31,000 sequences or so, about 1,400 (4.5%) were called active.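 The calls were made as follows: active = median seed-adjusted z-score above 1 or below -1; inactive = the rest.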 This is one part of the list.
# Experiment: Novel Modifiers of Survival Motor Neuron (SMN) Protein: Gene Identification via Genome-wide siRNA Screen;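 also: luminescence tracks full-length SMN protein made from the SMN2 reporter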
# Settings: HEK293T SMN2-luciferase reporter, siRNA knockdown, 72 h; actives lie on both sides
# Outline: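 Genome-wide siRNA screen (10418 genes, 3 siRNAs each, 1 pmol per well) by reverse transfection in HEK293T cells stably carrying an SMN2-luciferase reporter; luminescence after 72 hours, normalized to negative-control siRNA, log10-transformed, MAD-scored.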
row,Sequence,median seed-adjusted z-score
1,GAUCGAGAUAUGAAGCGAATT against PMPCA,inactive: -0.985
2,GGAGUUUCCAGAUCUCAAATT against LGR6,inactive: 0.237
3,GGCUUACUGGGUGAAUUAUTT against CARD17,inactive: 0.301
4,GAGACAGCAUAGAAGUUAATT against MAP1D,inactive: 0.155
5,CAAGGUUCUUGGUUGGGUATT against ZDHHC13,inactive: -0.381
6,CGGAUGCACAAGCUAAAUATT against BHLHA15,inactive: -0.199
7,GCUUAAGUCCUAGUGAACATT against ZNF649,inactive: 0.259
8,GGACUGUCCCUACAAUCUATT against HS6ST2,inactive: 0
9,CUUCAGCUGUCUGUACCCATT against SPIB,inactive: 0.0726
10,GGACCUAGCUGGGAACUUATT against GTF2IRD2,inactive: 0.904
11,GCAAGACCAUGCUACUAUUTT against DPAGT1,inactive: -0.144
12,GAGUGUAACUGCAACCAGATT against NTNG2,inactive: 0.403
13,GUAUCUAAGAGAGAUGAAATT against AP3S1,inactive: 0.787
14,GCACUACUGUGGACUCUUATT against DCHS1,inactive: 0.565
15,GCAUGAUUCUGGAAGCGCATT against ATP11A,inactive: 0.158
16,GAACUUGCAUCAGCACUGATT against ANXA2,inactive: 0.499
17,GGAGAGCCUGAUCAACAAATT against NUP62,inactive: 0
18,GGACCAGAACCACAAGCAATT against GHSR,inactive: 0.18
19,GAAUCUCCAGGAGUAAGGATT against MAP3K1,inactive: -0.217
20,GGAUGCUCUGUGAUCAGUATT against PDK4,inactive: -0.693
21,GGCUUUCAUUGAGCAGGAATT against ATP6V1E2,inactive: -0.162
22,CCUGAGAGAUUAAGACUAUTT against GPSM3,inactive: -0.641
23,GACUCAGAGUAACAACGCATT against MARK2,inactive: 0.664

row,Sequence,median seed-adjusted z-score
1,GAGCUUCGAUAUUAAGGCUTT against CHIA,inactive: 0.479
2,CCAUCGCCUUGAAGGAGAATT against RNF31,inactive: -0.687
3,UGGAAAGGCUUAAAGAACATT against MUTED,inactive: 0.00377
4,CAUCUAUCGUUACUUCCCATT against ZNF467,inactive: 0
5,GGACCUUCCUCAACUACUATT against EDEM2,inactive: 0.36
6,GGCUCAACAUGGACCGGAUTT against BCAT2,inactive: 0.0438
7,GAAUCUACGUCCCAAGAGATT against LIPE,inactive: -0.276
8,ACCUUUACCAUAAACUACATT against EPDR1,inactive: 0.369
9,CGUUGUUACUGGUGGAUAUTT against SLC16A4,inactive: 0.341
10,GCUAAAUGGAGGAGACUAATT against HHEX,inactive: -0.428
11,GCAAGAUCUUAUCCACAGATT against CIP29,active: -1.18
12,AGAUGUCCGAGCAACUGAATT against EXOSC1,inactive: 0.0508
13,AGCUCACACUAUGCAUUGATT against KRTAP2-2,inactive: -0.212
14,CCACCGACGACAAUCUGUATT against ATP4A,inactive: 0
15,GGGAAGAUCUCGUUCAAAATT against CETN1,inactive: 0.236
16,AGACACCUCCUAGGACUAUTT against MZF1,inactive: 0.215
17,CCUAGAGCCUAGAACUGUATT against CABP7,inactive: -0.268
18,GCAUCAUCGAGUACCCUUUTT against GNA11,inactive: -0.11
19,GCAAGACGUACAACUUAAATT against HSD17B10,inactive: -0.355
20,GGAGCCUAGUCAAGCCUGATT against VHL,inactive: -0.0797
21,GGAUAUUGCGUUUGGAACATT against TDP1,inactive: -0.352
22,CAGAUUUGGUAAAAGAGUATT against VPS26A,active: -1.55
23,GCCCAAGAAUGGGAUGUAUTT against CYP4X1,inactive: 0.546

row,Sequence,median seed-adjusted z-score
1,UCAUAUUCGUUGUAAUUUUTT against SLCO4A1,inactive: -0.0802
2,AACCCAUCGUUCCAUAUUATT against PPOX,inactive: 0.519
3,GUAACUACAGCAUAGAUUUTT against ZFP90,inactive: 0
4,UCUGCUAUUUGGUCCUGAATT against TOMM34,inactive: -0.503
5,GCCGAGUUUUGACCCUAGATT against SMC1B,inactive: 0
6,GGAGUAUAUGGUGAUCGAATT against KCNA3,inactive: 0.213
7,GCAGCAAAGGAAACCUAAATT against KLRC3,inactive: 0.833
8,ACAUUUUACAUGCAGCUAUTT against FABP5,inactive: -0.258
9,GGAUUUAUCUGUAACAUGATT against PDE6C,inactive: 0.205
10,UGACCAUCGUCUACAAGAATT against COPZ2,active: -1.23
11,CACUUGAUGUUAUUCGUGUTT against MOAP1,inactive: 0.0405
12,CGAGCAAGCUAUGGAUCUATT against TSC22D1,inactive: 0
13,AAAGAACUAUAUUGAAGAATT against GNG11,inactive: 0.00609
14,GCCUCGUUUUGGUACACCATT against KCND3,inactive: 0.282
15,UCAUUACCCUGGACCUGGATT against TDG,inactive: 0.0549
16,UGAAGAUGAUUGUCCUUAUTT against VAMP8,inactive: -0.184
17,GGAGCUGACUGCGGACUAUTT against RHOT2,inactive: 0.263
18,CUGUACAACGUCAACCUCATT against SCNN1D,active: -1.8
19,GAUCUGUCAAAAUUCCGAATT against TRPC1,inactive: -0.196
20,CCAAGUUAUUGCUGACUUATT against CYP27C1,inactive: 0.0462
21,GGAGGACCUUCGGAACCAATT against PPP1R12C,inactive: -0.535
22,GGCUAAGAAUGACCAUUAUTT against NPR2,inactive: 0.0712
23,GGUAUGCUAUGUUGACUAUTT against TDRD7,inactive: 0.11

# 3 entries drawn at random from the list so far:
row,Sequence,median seed-adjusted z-score
2,AACCCAUCGUUCCAUAUUATT against PPOX,inactive: 0.519
22,GGCUAAGAAUGACCAUUAUTT against NPR2,inactive: 0.0712
7,GCAGCAAAGGAAACCUAAATT against KLRC3,inactive: 0.833
